Library screen at single concentrations

Source: ChEMBL document CHEMBL3988442, “University of Dundee, Small-Polar-MMV Screening Library” (2021).

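Whole-parasite assay of Trypanosoma brucei over 72 hours; the read-out is not stated. Concentration: 30 µM. Higher reads as stronger inhibition (inferred: compounds with an IC50 in retests scored well above the rest). Values scatter widely below zero; nearly all retest evidence comes from the higher of the two concentrations used. About 64,000 compounds were tested under these conditions; 1.5% (about 940) showed 50% or more at least once.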

The filed quantity is “Percent Effect” (%). The controls that fix the scale are not given in the record; negative values are as filed. Compounds were drawn at random from those tested, without regard to their results.

With CC(=O)NCC1CCN(c2cc(C(C)C)nc3ccnn23)CC1 the screen gave -0.9963%.
With CN(Cc1cc(Cl)c2c(c1)OCO2)Cc1cscn1 the screen gave -0.8997%.
With Cc1sc2ccccc2c1S(=O)(=O)NCCNC(=O)C(C)C the screen gave 8.386%.
With CC(C)CN1CCc2[nH]nc(C(=O)N3CCCC3)c2C1.O=C(O)C(F)(F)F the screen gave -30.37%.
With CC(C)Cc1cc(C(=O)NCC2CCCN(c3ccccn3)C2)on1 (stereo not drawn) the screen gave -127.9%.
With Cc1cc(-c2cnc(NC3CC3)nc2-c2ccoc2C)on1 the screen gave 6.625%.
With NC(=O)CSCCC(=O)NCC1CC1 the screen gave -21.85%.
With CCN(Cc1ccco1)C(=O)C1=NN(c2ccccc2)C(=O)CN1 the screen gave -31.26%.
With CN1CCC(NC(=O)Nc2ccc(F)c(-n3cccc3)c2)C1=O (stereo not drawn) the screen gave 10.93%.
With CC(Cn1cccn1)NC(=O)N1CCN(Cc2cccnc2)CC1 (stereo not drawn) the screen gave 1.688%.
With CCN(C(=O)CN(CC(N)=O)C(C)C)C1=CCCC1 the screen gave -15.56%.
With N#Cc1ccc(OC2CCN(C(=O)COCC3CCCO3)CC2)cc1 (stereo not drawn) the screen gave -765.3%.
With Cc1nc(C)n(CC2CN(CCOCC(F)(F)F)CCO2)n1 (stereo not drawn) the screen gave 6.733%.
With CN(C)c1nc(N2CCCC2)nc2c1CCN(Cc1nccn1C)CC2.O=C(O)C(F)(F)F the screen gave 10.7%.
With N#Cc1ccc(C(=O)N(C2CC2)C2CC(=O)NC2=O)cc1 (stereo not drawn) the screen gave -6.33%.
With CN(C)CC(=O)N1CCC2(CC1)Cc1ccccc1CN(C)C2=O.O=C(O)C(F)(F)F the screen gave -19.69%.
With Cc1csc(N2CCN(C(=O)CCc3nccs3)CC2)n1 the screen gave 16.58%.
With Cc1cc2nc(SCC(=O)N3CCCC3)n(C(C)C)c(=O)c2[nH]1 the screen gave -12.62%.
With CCn1ncc(CNc2[nH]cnc3nncc2-3)c1C the screen gave -35.26%.
With FC(F)C(F)(F)COCc1ncnn1-c1ccc2c(c1)OCO2 the screen gave -10.79%.
With COCCOCC(=O)N1CCc2cc(Cl)cc(Cl)c2C1 the screen gave 0.4841%.
With Cl.Cl.Cn1cnc2c(N3CCOCC3)nc(C3CCNCC3)cc21 the screen gave 1.921%.
With CCc1cccc(NC(=O)NC2CCc3nc(C)nn3C2)c1 (stereo not drawn) the screen gave -158.6%.
With CN1CC2(CCN(CCCOCc3ccccc3)CC2)OC1=O the screen gave 7.821%.
With COc1ccc(CNC(=O)C(NC(=O)Cc2ccccc2)C(C)C)cn1 (stereo not drawn) the screen gave -70.21%.
With CCC(=O)Nc1ccc(C(C)Nc2nc3c(cnn3C)c(=O)[nH]2)cc1 (stereo not drawn) the screen gave 99.39%.
With CS(=O)(=O)Cc1ccc(Cl)c(NCc2noc(C3CC3)n2)c1 the screen gave -0.8572%.
With Cc1ccc(-c2cn3c(n2)CO[C@@H](CNCc2nccs2)C3)cc1 the screen gave -1.966%.
With CCC(NC(=O)c1coc(COc2cccc(F)c2F)n1)C(=O)NC (stereo not drawn) the screen gave 3.271%.
With CCNC(=O)[C@@H]1C[C@H](NC(=O)Cc2ccsc2)CN1Cc1ccc(C)o1 the screen gave 41.75%.
With O=C(c1n[nH]c2ccccc12)N1CCCC1c1noc(C2CC2)n1 (stereo not drawn) the screen gave 37.43%.
With Cc1nc(CN2CCN(CCOc3ccc(C(C)C)c(C)c3)CC2)no1 the screen gave 0.7352%.

For reference, 3 entries once more:

* CCn1ncc(CNc2[nH]cnc3nncc2-3)c1C : -35.26%
* CCN(Cc1ccco1)C(=O)C1=NN(c2ccccc2)C(=O)CN1 : -31.26%
* Cc1nc(C)n(CC2CN(CCOCC(F)(F)F)CCO2)n1 (stereo not drawn) : 6.733%